Experimental data: patent publication US20240076412A1 (NATIONAL INSTITUTE OF BIOLOGICAL SCIENCES BEIJING, published 2024)

By UniProt entry, the sequences of proteins in these tests, tags left out. Where a name states a change or a piece, a line headed by the entry shows the natural chain unless it says otherwise.
UniProt Q08722: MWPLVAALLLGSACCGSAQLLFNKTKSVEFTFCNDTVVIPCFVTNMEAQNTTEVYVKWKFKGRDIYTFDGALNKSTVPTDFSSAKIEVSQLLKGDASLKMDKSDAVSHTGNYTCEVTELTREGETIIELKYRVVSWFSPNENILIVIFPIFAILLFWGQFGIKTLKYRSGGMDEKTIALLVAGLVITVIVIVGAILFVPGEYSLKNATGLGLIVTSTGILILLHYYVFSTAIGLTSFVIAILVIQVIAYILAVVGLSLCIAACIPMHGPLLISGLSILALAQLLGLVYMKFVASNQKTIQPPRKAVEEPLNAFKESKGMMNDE

How the values were obtained:
[1] = target: human CD47 on the cell surface (human) (UniProt Q08722); assay: flow cytometry (short legend of FIG. 5)
[2] = target: human CD47 on the cell surface (human) (UniProt Q08722); assay: flow cytometry on cells carrying hCD47 (FIG. 4A)
[3] = target: human CD47 on the cell surface (human) (UniProt Q08722); assay: flow cytometry on Raji and HEK-293 cells (FIG. 5)
[4] = target: human CD47 on the cell surface (human) (UniProt Q08722); assay: FACS on 293T cells, full-length IgG1, FITC anti-hFc
[5] = target: human CD47 on the cell surface (human) (UniProt Q08722); assay: FACS on Raji-WT and Raji-GPC3H cells, FITC anti-human IgG
[6] = target: human CD47 on the cell surface (human) (UniProt Q08722); assay: FACS on Raji-WT and Raji-GPC3H cells, FITC secondary antibody
[7] = target: human CD47 on the cell surface (human) (UniProt Q08722); assay: flow cytometry on Raji and HEK-293 cells, FITC anti-human Fc (FIG. 5)
[8] = target: human CD47 on the cell surface (human) (UniProt Q08722); assay: FACS, cells carrying hCD47, full-length IgG1, FITC anti-human Fc
[9] = target: human CD47 on the cell surface (human) (UniProt Q08722); assay: flow cytometry on Raji and 293T cells, full length IgG1 (FIG. 5 legend)
[10] = target: human CD47 on the cell surface (human) (UniProt Q08722); assay: flow cytometry on a 1:1 mix of labelled Raji and Raji-GPC3^H cells (FIG. 12C)
[11] = target: human CD47 on the cell surface (human) (UniProt Q08722); assay: FACS on Raji cells, full-length IgG1, 5-fold series from 200 nM, FITC anti-hFc
[12] = target: human CD47 on the cell surface (human) (UniProt Q08722); assay: FACS, 1:1 mix of Raji-WT (dye-labelled) and Raji-GPC3H cells, 0.2 µg/mL antibody
[13] = target: human CD47 on the cell surface (human) (UniProt Q08722); assay: blocking FACS, 10 µg/mL antibody, blocked ligand 50 nM biotinylated SIRPα-mFc, streptavidin-FITC
[14] = target: human CD47 on the cell surface (human) (UniProt Q08722); assay: SIRPα competition FACS, cells carrying hCD47, competitor biotinylated SIRPα-d1-mFc (100 nM by the legend paragraph 154), streptavidin-FITC

Measured: binding

B1: BC18 full-length human IgG1 (antibody, V domains shown)
VH: QVQLQQSGPGLVKPSETLSLTCTVSGDSINYHYWSWIRQPPGKGLEWIGYIYYSGSTTYNPSLKSRVTMSVDPSKNHFSLKLTSVTAADTALYFCARQRGAYDYWGQGTQVTVSS
VL: DIQLTQSPSSVSASVGDRVTIACRASQDIGSRLVWYQQRPGKAPKLLIYAASSLQSGVPSRFSGSGSGTDFTLTISSLQPEDFATYYCQQSYSTPYSFGQGTKLEIK
notes: also called anti-CD47 mAb; parental anti-CD47 mAb
binds: all assays above

B2: BC7 full-length human IgG1 (antibody, V domains shown)
VH: QVQLQQSGPGLVKPSETLSLTCTVSGDSINYHYWSWIRQPPGKGLEWIGYIYYSGSTTYNPSLKSRVTMSVDPSKNHFSLKLTSVTAADTALYFCARQRGAYDYWGQGTLVTVSS
VL: DIVMTQSPSSVSASVGDRVTITCRASQGIGSRLAWYQQKPGKAPQLLIYAASSLQSGVPSRFSGSGSGTEFTLTISSLQPDDFATYYCQQYNSFSPITFGQGTRLEIK
binds: [1] | [3] | [4] | [7] | [9] | [11]

No constants are given. Whether binding was seen depends on the method and setting. Binding calls can cover weak binding; strength is not graded here.
